Some results were stated once for a whole list of compounds, not compound by compound. At least one compound was matched to its structure with a doubt left.
Test system: HL-60 cells
Assay: Antiproliferation activity against tumor cells (MTT, absorbance at 590 nm)
Assay type: cell-based
Settings: 48 hours
Protocol: The Samples 1 to 3 were separately sterilized by filtration and appropriately diluted with sterile water. 10 μl of each dilution was placed in a well of a 96-well microtiter plate. 90 μl of RPMI 1640 medium (Nissui) containing 10% fetal bovine serum (Gibco), which had been treated at 56° C. for 30 minutes, and 5,000 HL-60 cells (ATCC CCL-240) was added thereto. The plate was incubated at 37° C. for 48 hours in the presence of 5% CO2. The cell morphology was examined under an optical microscope. 10 μl of 5 mg/ml 3-(4,5-dimethylthiazol-2-yl)-2,5-diphenyltetrazolium bromide (Sigma) solution in phosphate buffered saline was further added thereto and the incubation was continued for additional 4 hours. 100 μl of 2-propanol containing 0.04 N HCl was added to the well and the mixture was thoroughly stirred. The absorbance at 590 nm was measured to determine the cell growth level.

OC[C@H]1O[C@@H](O[C@H]2[C@H]3OC[C@@H]2OC(O)[C@H]3O)[C@H](O)[C@@H](O)[C@H]1O (mixture of isomers) [Sample 1, agarobiose]
antiproliferation activity against tumor cells: almost equivalent antiproliferation activities against tumor cells
